These are yes or no findings as the source states them, for the method shown. Some entries that bind do so weakly or less than the wild type.
How the values were obtained:
[1] = biological target: recombinant human TLR4/MD-2 complex (R&D Systems cat. no. 3146-TN/CF) (human) (UniProt O00206); experiment: SPR (Biacore), 100 and 200 nM S100A9 over amine-coupled human TLR4/MD-2, HBS-P with 1 mM CaCl2 and 10 µM ZnCl2, regeneration with 3 mM EDTA
[2] = biological target: recombinant human TLR4/MD-2 complex (R&D Systems cat. no. 3146-TN/CF) (human) (UniProt O00206); experiment: SPR, 100 and 200 nM S100A9 over amine-coupled TLR4/MD-2, 1 mM CaCl2 and 10 µM ZnCl2
[3] = biological target: recombinant human TLR4/MD-2 complex (R&D Systems cat. no. 3146-TN/CF) (human) (UniProt O00206); experiment: SPR, S100A9 over amine-coupled TLR4/MD-2

Chains of the proteins cited; added tags and fusions are not shown. Lines headed by an entry give the natural chain unless they say otherwise; changes in a name come on top.
UniProt O00206: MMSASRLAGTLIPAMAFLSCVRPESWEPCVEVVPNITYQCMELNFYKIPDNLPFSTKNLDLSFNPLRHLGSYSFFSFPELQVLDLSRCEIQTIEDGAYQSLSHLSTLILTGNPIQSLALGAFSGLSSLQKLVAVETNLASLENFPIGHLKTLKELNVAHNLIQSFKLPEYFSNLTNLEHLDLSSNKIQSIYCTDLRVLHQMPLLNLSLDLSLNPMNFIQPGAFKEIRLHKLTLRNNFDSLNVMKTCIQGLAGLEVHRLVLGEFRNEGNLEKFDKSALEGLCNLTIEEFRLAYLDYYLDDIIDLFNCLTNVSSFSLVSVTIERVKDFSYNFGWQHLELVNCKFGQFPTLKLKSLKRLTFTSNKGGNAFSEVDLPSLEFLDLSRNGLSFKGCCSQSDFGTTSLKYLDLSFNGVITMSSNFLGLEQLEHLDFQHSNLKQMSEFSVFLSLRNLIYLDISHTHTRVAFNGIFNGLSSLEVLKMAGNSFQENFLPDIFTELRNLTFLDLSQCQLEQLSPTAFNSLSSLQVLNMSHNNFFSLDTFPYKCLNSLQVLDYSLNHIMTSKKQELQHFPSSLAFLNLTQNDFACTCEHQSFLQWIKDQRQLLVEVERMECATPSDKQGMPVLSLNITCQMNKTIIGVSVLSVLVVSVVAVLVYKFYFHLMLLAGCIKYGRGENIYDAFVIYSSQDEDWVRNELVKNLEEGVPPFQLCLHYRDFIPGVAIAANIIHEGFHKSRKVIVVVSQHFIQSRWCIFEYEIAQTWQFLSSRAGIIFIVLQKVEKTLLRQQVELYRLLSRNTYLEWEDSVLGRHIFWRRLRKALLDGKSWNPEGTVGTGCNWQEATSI

binding [1]: binds
binding [2]: binds
binding [3]: binds
B1: recombinant human S100A9 (ligand)
chain: MTCKMSQLERNIETIINTFHQYSVKLGHPDTLNQGEFKELVRKDLQNFLKKENKNEKVIEHIMEDLDTNADKQLSFEEFIMLMARLTWASHEKMHEGDEGPGHHHKPGLGEGTP
